Paper PMC9166816
Results are given in words; binding and its absence hold for the method and conditions named. Binding seen in cells or lysates may run through a third protein. Here binding means that the protein was enriched with, or labelled near, the bait; the list need not be complete. A no says only that the protein was not detected with the bait. Where a sequence is shown, tags or fusion partners need not be part of it.

Biological target: T1, FLAG and HA-tagged RNF219 (FHA-RNF219), stably expressed in HeLa S3 cells (human) (UniProt Q5W0B1)
T1 sequence: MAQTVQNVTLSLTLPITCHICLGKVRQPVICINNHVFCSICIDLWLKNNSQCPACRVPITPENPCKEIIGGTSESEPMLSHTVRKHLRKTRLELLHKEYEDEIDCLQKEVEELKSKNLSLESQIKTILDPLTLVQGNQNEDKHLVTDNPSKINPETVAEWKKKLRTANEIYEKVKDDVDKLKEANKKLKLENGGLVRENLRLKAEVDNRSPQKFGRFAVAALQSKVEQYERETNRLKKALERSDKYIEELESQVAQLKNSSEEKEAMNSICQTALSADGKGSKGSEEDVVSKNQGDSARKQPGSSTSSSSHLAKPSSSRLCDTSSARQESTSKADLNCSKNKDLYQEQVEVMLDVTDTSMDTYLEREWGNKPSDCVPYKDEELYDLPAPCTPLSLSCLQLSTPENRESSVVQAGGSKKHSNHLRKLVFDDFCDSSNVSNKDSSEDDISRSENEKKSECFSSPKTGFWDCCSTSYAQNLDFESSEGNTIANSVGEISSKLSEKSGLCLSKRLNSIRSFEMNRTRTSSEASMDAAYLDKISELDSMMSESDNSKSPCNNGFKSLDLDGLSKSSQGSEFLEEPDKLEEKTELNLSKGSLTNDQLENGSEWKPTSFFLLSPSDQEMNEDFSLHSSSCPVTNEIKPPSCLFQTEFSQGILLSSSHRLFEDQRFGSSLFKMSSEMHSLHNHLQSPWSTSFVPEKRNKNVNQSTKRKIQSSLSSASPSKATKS
Experiment: affinity purification with mass spectrometry; two-step FLAG and HA affinity chromatography from Dignam S100 cytoplasmic extracts of HeLa S3 cells stably expressing FHA-RNF219; bands of SDS-PAGE analysed by tandem mass spectrometry; non-transduced HeLa S3 as mock

B1: CNOT4 (protein, UniProt O95628 1-575)
chain: MSRSPDAKEDPVECPLCMEPLEIDDINFFPCTCGYQICRFCWHRIRTDENGLCPACRKPYPEDPAVYKPLSQEELQRIKNEKKQKQNERKQKISENRKHLASVRVVQKNLVFVVGLSQRLADPEVLKRPEYFGKFGKIHKVVINNSTSYAGSQGPSASAYVTYIRSEDALRAIQCVNNVVVDGRTLKASLGTTKYCSYFLKNMQCPKPDCMYLHELGDEAASFTKEEMQAGKHQEYEQKLLQELYKLNPNFLQLSTGSVDKNKNKVTPLQRYDTPIDKPSDSLSIGNGDNSQQISNSDTPSPPPGLSKSNPVIPISSSNHSARSPFEGAVTESQSLFSDNFRHPNPIPSGLPPFPSSPQTSSDWPTAPEPQSLFTSETIPVSSSTDWQAAFGFGSSKQPEDDLGFDPFDVTRKALADLIEKELSVQDQPSLSPTSLQNSSSHTTTAKGPGSGFLHPAAATNANSLNSTFSVLPQRFPQFQQHRAVYNSFSFPGQAARYPWMAFPRNSIMHLNHTANPTSNSNFLDLNLPPQHNTGLGGIPVAGEEEVKVSTMPLSTSSHSLQQGQQPTSLHTTVA
For B1, the binding was “no binding”.
